The test system of the assay is RAW 264.7. The experiment in a line: HMGB1-induced TNF-alpha production relative to HMGB1-stimulated control; higher = more TNF-alpha secretion (less inhibition). As to conditions: stimulus: HMGB1 5 ug/ml, 18 h.
Setting [1] is: compound concentration: 1 ug/ml.

Counter-ions that a name gives are not always drawn. ± gives the standard deviation of the averaged measurements. Some of the results follow. Most values come without repeats; read them as rough.

In the case of `NC(=O)c1ccccc1O`, the “HMGB1-induced TNF-alpha production” value (compound concentration: 3 uM) was determined as 93.3%.
Still for that read-out and setting: the figure for `CCOC(=O)N1CCC(=C2c3ccc(Cl)cc3CCc3cccnc32)CC1` is 93.8 ± 18%; for `CCOC(=O)N1CCC(=C2c3ccc(Cl)cc3CCc3cccnc32)CC1` [Loratadine] it is 98.6 ± 7.9%; for `Nc1nc(F)nc2c1ncn2[C@@H]1O[C@H](COP(=O)(O)O)[C@@H](O)[C@@H]1O` it is 105.2 ± 1%.
Turning to `O=C1/C(=C/c2cccs2)CC/C1=C\c1cccs1`, the “HMGB1-induced TNF-alpha production” value (compound concentration: 3 uM) was 99.3%.
As for `COCCCC/C(=N\OCCN)c1ccc(C(F)(F)F)cc1` [Fluvoxamine maleate], the “HMGB1-induced TNF-alpha production” value (compound concentration: 3 uM) was found to be 82.7 ± 17%.
As for `COCCCC/C(=N\OCCN)c1ccc(C(F)(F)F)cc1` [Fluvoxamine], the “HMGB1-induced TNF-alpha production” value (compound concentration: 3 uM) stood at 104%.
Same read-out and setting: the figure for `COC(=O)[C@H](c1ccccc1Cl)N1CCc2sccc2C1` is 73.8%; for `COC(=O)[C@H](c1ccccc1Cl)N1CCc2sccc2C1` [Clopidogrel] it is 64.8%; for `C[C@]12CCC(=O)C=C1CC[C@@H]1[C@@H]2C(=O)C[C@@]2(C)[C@H]1CC[C@]2(O)C(=O)CO` [Cortisone] it is 84.4 ± 15%.
Still for that read-out and setting: the figure for `C[C@]12CCC(=O)C=C1CC[C@@H]1[C@@H]2C(=O)C[C@@]2(C)[C@H]1CC[C@]2(O)C(=O)CO` is 102 ± 20%; for `O=C1N[C@H](C(=O)O)CS1` [4-Thiazolidinecarboxylic acid, 2-oxo-, (R)- [CAS]] it is 105%.
In the case of `CC[C@H](C)[C@H](NC(=O)OCC1c2ccccc2-c2ccccc21)C(=O)O` [FMOC-L-Isoleucine], under setting [1], the “HMGB1-induced TNF-alpha production” value worked out at 76.2%.
Regarding `CCN(CC)CCNC(=O)c1ccc(NS(C)(=O)=O)cc1` [Sematilide monohydrochloride monohydrate], the “HMGB1-induced TNF-alpha production” value (compound concentration: 3 uM) came to 85.4%.
Same read-out and setting: the figure for `C[C@H](N[C@@H](CCc1ccccc1)C(=O)O)C(=O)N1CCC[C@H]1C(=O)O` [Enalaprilat dihydrate] is 99.4%.
The same measure, in the same setting: the figure for `C[C@H](N[C@@H](CCc1ccccc1)C(=O)O)C(=O)N1CCC[C@H]1C(=O)O` is 116%; for `C[C@H](N[C@@H](CCc1ccccc1)C(=O)O)C(=O)N1CCC[C@H]1C(=O)O` [Enalaprilat] it is 108%; for `O=C(O)C1CCCNC1` (racemic) [(±)-Nipecotic acid] it is 95.8%.
Still for that read-out and setting: the figure for `CN(C)[C@@H]1C(O)=C(C(N)=O)C(=O)[C@@]2(O)C(O)=C3C(=O)c4c(O)cccc4[C@@](C)(O)[C@H]3C[C@@H]12` [Tetracycline] is 90.7%; for `CN(C)[C@@H]1C(O)=C(C(N)=O)C(=O)[C@@]2(O)C(O)=C3C(=O)c4c(O)cccc4[C@@](C)(O)[C@H]3C[C@@H]12` it is 93.6%.
As for `CN(C)[C@@H]1C(O)=C(C(N)=O)C(=O)[C@@]2(O)C(O)=C3C(=O)c4c(O)cccc4[C@@](C)(O)[C@H]3C[C@@H]12` [Tetracycline hydrochloride], the “HMGB1-induced TNF-alpha production” value under setting [1] was 74.5% and the “HMGB1-induced TNF-alpha production” value (compound concentration: 3 uM) was 72.9%.
For the compound `COc1cc2nc(N3CCN(C(=O)OCc4ccccc4)[C@H](C(=O)NC(C)(C)C)C3)nc(N)c2cc1OC`, under “compound concentration: 3 uM”, the “HMGB1-induced TNF-alpha production” value was 108%.
The same measure, in the same setting: the figure for `Cc1cccc(C)c1NC(=O)c1ccccc1C(=O)O` is 89.4%; for `CCNC(=O)[C@H]1O[C@@H](n2cnc3c(N)nc(NCCc4ccc(CCC(=O)O)cc4)nc32)[C@H](O)[C@@H]1O` it is 89.3%.
The same measure, in the same setting: the figure for `CNCCNS(=O)(=O)c1cccc2cnccc12` [H-8 dihydrochloride] is 113%; for `C[C@](N)(Cc1ccc(O)cc1)C(=O)O` [L-alpha-Methyl-p-tyrosine] it is 110%; for `CC(C)NCC(O)COc1cccc2ccccc12` (racemic) it is 84.4%.
Still for that read-out and setting: the figure for `CC(C)NCC(O)COc1cccc2ccccc12` (racemic) [(±)-Propranolol hydrochloride] is 113%.
With `CS(=O)(=O)c1ccc([C@@H](O)[C@@H](CF)NC(=O)C(Cl)Cl)cc1`, the “HMGB1-induced TNF-alpha production” value (compound concentration: 3 uM) worked out at 84.3%.
On the same count and under the same terms, the figure for `CS(=O)(=O)c1ccc([C@@H](O)[C@@H](CF)NC(=O)C(Cl)Cl)cc1` [Florfenicol] is 97.2 ± 3%; for `CCN(CC)CCCC(C)Nc1ccnc2cc(Cl)ccc12` (centres undefined) [Chloroquine] it is 106%; for `CCN(CC)CCCC(C)Nc1ccnc2cc(Cl)ccc12` (centres undefined) [Chloroquine diphosphate] it is 72.3 ± 12%.
Still for that read-out and setting: the figure for `CCN(CC)CCCC(C)Nc1ccnc2cc(Cl)ccc12` (centres undefined) is 89.2 ± 0.9%.
As for `NC(Cc1c[nH]c2cc(F)ccc12)C(=O)O` (racemic) [6-Fluoro-DL-tryptophan], under setting [1], the “HMGB1-induced TNF-alpha production” value turned out to be 64.8%.
In the case of `Nc1ccc(S(=O)(=O)NC(=O)c2ccccc2)cc1` [Sulfabenzamide], the “HMGB1-induced TNF-alpha production” value (compound concentration: 3 uM) was determined as 88.4%.
The same measure, in the same setting: the figure for `Nc1ccc(S(=O)(=O)NC(=O)c2ccccc2)cc1` is 85.9%.
The same measure, in the same setting: the figure for `C[N+](C)(C)CCOP(=O)(O)OP(=O)([O-])OC[C@H]1O[C@@H](n2ccc(N)nc2=O)[C@H](O)[C@@H]1O` is 112%; for `C[N+](C)(C)CCOP(=O)(O)OP(=O)([O-])OC[C@H]1O[C@@H](n2ccc(N)nc2=O)[C@H](O)[C@@H]1O` [Cytidine 5'-diphosphocholine sodium salt hydrate] it is 81.1%.
For the compound `CC(C)c1nc(N(C)S(C)(=O)=O)nc(-c2ccc(F)cc2)c1/C=C/[C@@H](O)C[C@@H](O)CC(=O)O`, the “HMGB1-induced TNF-alpha production” value (compound concentration: 3 uM) came out at 89.3%.
Same read-out and setting: the figure for `C=C(CC)C(=O)c1ccc(OCC(=O)O)c(Cl)c1Cl` is 43.3%.
Same read-out and setting: the figure for `C=C(CC)C(=O)c1ccc(OCC(=O)O)c(Cl)c1Cl` [Ethacrynic acid] is 44.5%.
`C=C(CC)C(=O)c1ccc(OCC(=O)O)c(Cl)c1Cl` [Ethacrynic Acid]: the “HMGB1-induced TNF-alpha production” value (compound concentration: 3 uM) is 70.5%.
Consider `O=c1ccc2cc3ccoc3cc2o1` [Psoralen], for which the “HMGB1-induced TNF-alpha production” value under setting [1] amounted to 70.8%.
In the case of `CN=c1nc(-c2ccccc2)n(-c2ccccc2)s1`, under “compound concentration: 3 uM”, the “HMGB1-induced TNF-alpha production” value is 110%.
Same read-out and setting: the figure for `Nc1ncnc2c1ncn2[C@@H]1O[C@H](CO)C[C@@H]1O` [3'-deoxydenosine] is 98.8%; for `O=C1NCCN1c1ncc([N+](=O)[O-])s1` [Niridazole] it is 71.3%.
On the same count and under the same terms, the figure for `C1N2CN3CN1CN(C2)C3` is 89.5%; for `C1N2CN3CN1CN(C2)C3` [Methenamine] it is 96.5%.
Take `O=C(O)C1=C[C@@H](O)[C@@H](O)[C@H](O)C1` [Shikimic acid]: the “HMGB1-induced TNF-alpha production” value under setting [1] is 74.3%.
On to `CCCCCN(C)CCC(O)(P(=O)(O)O)P(=O)(O)O` [Ibandronate sodium], for which the “HMGB1-induced TNF-alpha production” value (compound concentration: 3 uM) stood at 97.9%.
On the same count and under the same terms, the figure for `CCCCCN(C)CCC(O)(P(=O)(O)O)P(=O)(O)O` [Ibandronate] is 86.7 ± 2.6%; for `CNc1ncnc2c1ncn2[C@@H]1O[C@H](CO)[C@@H](O)[C@H]1O` [N6-methyladenosine] it is 61.3%; for `CNc1ncnc2c1ncn2[C@@H]1O[C@H](CO)[C@@H](O)[C@H]1O` [N6-Methyladenosine] it is 110%.
Regarding `OCC(O)CN1CCN(c2ccccc2)CC1` (racemic) [Dropropizine (R,S)], the “HMGB1-induced TNF-alpha production” value (compound concentration: 3 uM) was 86.6%.
Same read-out and setting: the figure for `CC(C)(C)C(=O)OCOC(=O)[C@@H]1N2C(=O)[C@@H](/N=C/N3CCCCCC3)[C@H]2SC1(C)C` [Pivmecillinam hydrochloride] is 119%; for `N[C@@H](CC(=O)O)C(=O)O` [L-Aspartic acid] it is 91.4%; for `CCCCN1C[C@H](O)[C@@H](O)[C@H](O)[C@H]1CO` [Miglustat] it is 88.5%.
Same read-out and setting: the figure for `C[C@@H](O)[C@H]1C(=O)N2C(C(=O)O)=C(SCCNC=N)C[C@H]12` [Imipenem monohydrate] is 73%; for `C[C@@H](O)[C@H]1C(=O)N2C(C(=O)O)=C(SCCNC=N)C[C@H]12` [Imipenem] it is 59.4 ± 38%; for `c1ccc2c(c1)CCCC2C1=NCCN1` (centres undefined) it is 85.2%.
Same read-out and setting: the figure for `c1ccc2c(c1)CCCC2C1=NCCN1` (centres undefined) [Tetrahydrozoline hydrochloride] is 111.7 ± 1.1%; for `C=CC(N)CCC(=O)O` (racemic) [(±)-gamma-Vinyl GABA] it is 102%.
As to `C=CCc1ccc(O)c(OC)c1` [Eugenol], under setting [1], the “HMGB1-induced TNF-alpha production” value was 78.1%.
Take `C=CCc1ccc(O)c(OC)c1`: the “HMGB1-induced TNF-alpha production” value (compound concentration: 3 uM) turned out to be 85.5%.
Same read-out and setting: the figure for `CC(=O)OCC(=O)NCCCOc1cccc(CN2CCCCC2)c1` [Roxatidine Acetate HCl] is 73.2%; for `CC(=O)OCC(=O)NCCCOc1cccc(CN2CCCCC2)c1` it is 96.9%; for `CC(=O)OCC(=O)NCCCOc1cccc(CN2CCCCC2)c1` [Roxatidine acetate] it is 96.8%.
Turning to `CCn1cc(C(=O)O)c(=O)c2cc(F)c(N3CCNCC3)nc21` [Enoxacin], the “HMGB1-induced TNF-alpha production” value (compound concentration: 3 uM) is 99.8 ± 3.4%.
Still for that read-out and setting: the figure for `CCn1cc(C(=O)O)c(=O)c2cc(F)c(N3CCNCC3)nc21` is 109%.
On the same count and under the same terms, the figure for `CC1(C)CCC=[N+]1[O-]` [5,5-Dimethyl-1-pyrroline-N-oxide] is 86.6%; for `CC1(C)CCC(NC(=O)[C@@H](N)CCC(=O)O)CC1` it is 126%.
On to `Nc1ncnc2c1ncn2C1CC(O)C(CO)O1` (centres undefined) [2'-Deoxyadenosine hydrate], for which the “HMGB1-induced TNF-alpha production” value under setting [1] is 79.3%.
For `Nc1ncnc2c1ncn2C1CC(O)C(CO)O1` (centres undefined) [2'-Deoxyadenosine monohydrate], under setting [1], the “HMGB1-induced TNF-alpha production” value was determined as 76.3%.
For `O=C(O)C1CCNCC1` [Isonipecotic acid], where the note is “compound concentration: 3 uM”, the “HMGB1-induced TNF-alpha production” value was determined as 96.5%.
Still for that read-out and setting: the figure for `O=C1NC(=O)C(c2ccccc2[N+](=O)[O-])=C1Nc1ccc(O)c(Cl)c1` is 80.4%.
As to `CCCc1ncc(C[n+]2ccccc2C)c(N)n1`, the “HMGB1-induced TNF-alpha production” value (compound concentration: 3 uM) came to 77.2%.
Still for that read-out and setting: the figure for `CCCc1ncc(C[n+]2ccccc2C)c(N)n1` [Amprolium hydrochloride] is 76.9%; for `Oc1ccc(C2CNCCc3c2cc(O)c(O)c3Cl)cc1` (centres undefined) it is 97.2%.
On the same count and under the same terms, the figure for `Oc1ccc(C2CNCCc3c2cc(O)c(O)c3Cl)cc1` (centres undefined) [Fenoldopam] is 99.4%; for `Oc1ccc(C2CNCCc3c2cc(O)c(O)c3Cl)cc1` (centres undefined) [Fenoldopam bromide] it is 110%.
With `CC(C(=O)O)c1cccc(Oc2ccccc2)c1` (centres undefined) [Fenoprofen calcium salt dihydrate], for the setting “compound concentration: 3 uM”, the “HMGB1-induced TNF-alpha production” value amounted to 90.6%.
Still for that read-out and setting: the figure for `CC(C(=O)O)c1cccc(Oc2ccccc2)c1` (centres undefined) [Fenoprofen] is 91.8%; for `CC(C(=O)O)c1cccc(Oc2ccccc2)c1` (centres undefined) it is 99.2%; for `O=C(O)CN(CCN(CC(=O)O)CC(=O)O)CC(=O)O.[Na+].[Na+].[Na+]` it is 102%.
On the same count and under the same terms, the figure for `C[C@@H]1CN(CCCn2c3ccccc3c3ccccc32)C[C@H](C)N1` [Rimcazole] is 107%.
Still for that read-out and setting: the figure for `O=C1OC(c2ccc(O)cc2)(c2ccc(O)cc2)c2ccccc21` is 101%.
For `COc1ccc2c(C)cc(=O)oc2c1` [7-methoxy-4-methylcoumarin], under setting [1], the “HMGB1-induced TNF-alpha production” value was 65.1%.
On the same count and under the same terms, the figure for `CC(C)CSC[C@H]1O[C@@H](n2cnc3c(N)ncnc32)[C@H](O)[C@@H]1O` [5'-Isobutylthio-5'-deoxyadenosine] is 49.7%.

The values above are taken from the supplement of paper PMC3682954.
